# From PubChem BioAssay AID1688 (National Center for Advancing Translational Sciences (NCATS), 2009)
# Screen size: about 220,000 compounds; about 2,400 (1.1%) were called active. Inconclusive results, whose numbers are uncertain, are shown with a selection of clear calls. Calls follow the shape of the dose curve; as a rule, active = well fitted inhibition curve with a large enough effect; inconclusive = small, poorly fitted or top-dose-only effect, or effect the other way; inactive = no such curve, though single readings can be large or run the other way. Potencies beside an inconclusive call are fits to weak or partial responses and may not hold up.
# Assay: qHTS Multiplex Assay to Identify Dual Action Probes in a Cell Model of Huntington: Aggregate Formation (GFP); also: nearly all actives have a fitted effect of over 60% in size
# Conditions: PC12 HttQ103-GFP aggregates, Acumen cytometry, 40 h; activity change, negative = inhibition: at 46.1 µM (top of the series) unless noted
# How it was run: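 Huntingtin Q103 exon 1–GFP aggregates in induced PC12 cells (100 nM tebufenozide) were quantified by cytometry from lysates, with compounds dosed in titration.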
# % is scaled to controls: 0 for no effect and ±100 for the full control effect; potency is read from the fitted curve at half-maximal effect.
SMILES,Potency,"activity change, negative = inhibition"
C=CCCCCc1nc2ccccc2c(=O)n1N,inactive,–
Cc1cc(/C=C\c2ccc3cc(N(C)C)ccc3[n+]2C)c(C)n1-c1ccccc1,active: 3.16 µM,–
C/C(CC(=O)Nc1ccc(Cl)c(C(F)(F)F)c1)=N\NC(=O)c1ccccc1O,active: 15.8 µM,–
Cc1nn(-c2ccccc2)c(N2CCCC2)c1/C=N/NC(=S)Nc1ccccc1F,"inconclusive: 35.5 µM [inhibitor, single point]",–
CCCC(=O)Nc1ccc(Cl)c(NC(=S)NC(=O)c2cc3ccccc3o2)c1,"inconclusive: 5.62 µM [inhibitor, single point]",–
Cn1c(=O)c2c(ncn2Cc2cccc(Cl)c2)n(C)c1=O,"inconclusive: 22.4 µM [inhibitor, single point]",–
COc1ccc(C(=O)N/N=C(\c2ccccc2)c2ccccn2)cc1,"inconclusive: 3.16 µM [inhibitor, partial curve]",–
Cc1ccc(S(=O)(=O)N/N=C/c2cc([N+](=O)[O-])ccc2O)cc1[N+](=O)[O-],inactive,–
COc1ccccc1N1CCN(C(=O)c2oc3ccc(F)cc3c2C)CC1,active: 11.2 µM,–
COCC1CCN(Cc2cn(-c3ccccc3F)nc2-c2cc(C)sc2C)CC1,–,inactive: 6.76% [at 9.22 µM]
O=C(Cn1cc([N+](=O)[O-])cn1)Nc1ccc(Cn2cc(Br)cn2)cc1,"inconclusive: 35.5 µM [inhibitor, single point]",–
CN(c1ccccc1)S(=O)(=O)c1cccc(NC(=O)Cn2cnc3c2c(=O)n(C)c(=O)n3C)c1,"inconclusive: 35.5 µM [inhibitor, single point]",–
Cc1ccc(C(=O)NCC(=O)OCC(=O)/C=C2\N(C)c3ccccc3C2(C)C)cc1C,"inconclusive: 35.5 µM [inhibitor, single point]",–
CC1CCCN(S(=O)(=O)c2cc(Cl)ccc2Cl)C1 (stereo unspecified),"inconclusive: 35.5 µM [inhibitor, single point]",–
COC(=O)c1ccccc1NC1CC(=O)N(c2c(C)cccc2C)C1=O (stereo unspecified),"inconclusive: 11.2 µM [activator, partial curve, poor fit]",–
CC(C)Cc1nc(N2CCN(C(=O)c3ccccc3)CC2)c(C#N)c2c1CCC2,"inconclusive: 35.5 µM [inhibitor, single point]",–
CCN1C(=O)/C(=C/c2cccs2)N(C)C1=S,inactive,–
N/C(Cc1ccc(Cl)cc1Cl)=N\OC(=O)c1cccs1,inactive,–
CCCCn1c(/C=C/c2ccco2)nc2ccccc21,inactive,–
COc1cc(OC)c(-c2c3cc(O)c(=O)cc-3oc3cc(O)c(O)cc23)cc1OC,active: 3.98 µM,–
CCCc1[nH]nc2c1C(C1CCCCC1)C(C#N)=C(N)O2 (stereo unspecified),"inconclusive: 12.6 µM [activator, partial curve]",–
CCOc1ccc(-n2c(C)nc3cc(C(=O)NCCCN4CCOCC4)ccc32)cc1,"inconclusive: 0.501 µM [activator, full curve, poor fit]",–
COc1cc(C2c3c(-c4cc(Cl)c(C)cc4O)n[nH]c3C(=O)N2Cc2cccnc2)ccc1O (stereo unspecified),"inconclusive: 20 µM [activator, partial curve, poor fit]",–
O=C(C[n+]1cccc2ccccc21)c1ccc([N+](=O)[O-])cc1,"inconclusive: 35.5 µM [inhibitor, single point]",–

SMILES,Potency,"activity change, negative = inhibition"
O=C(CSc1nnnn1C1CCCC1)Nc1cccc(NC(=O)c2ccco2)c1,inactive,–
Cc1ccc(NC(=O)C2CCN(S(=O)(=O)c3c(C)n[nH]c3C)CC2)nc1,"inconclusive: 3.16 µM [inhibitor, single point]",–
CC(C)(C)C1CCC(=NNS(=O)(=O)c2ccc(Br)cc2)CC1 (stereo unspecified),"inconclusive: 14.1 µM [activator, single point]",–
CSc1sc(C(=O)NC(=O)NCc2ccncc2)c(C)c1-c1ccon1,–,inactive: -25% [at 9.22 µM]
COc1ccc2oc(=N)c(C(=O)Nc3ccccc3)cc2c1,inactive,–
Cn1nnnc1N=N/C(=N/Nc1ccccc1)c1ccccc1,"inconclusive: 3.55 µM [inhibitor, single point]",–
O=C(CSCc1c(F)cccc1Cl)NCCSCc1ccco1,–,inactive: 9.49% [at 9.22 µM]
CN1CCC(Nc2ncc3ncnc(Nc4ccc(F)c(Cl)c4)c3n2)CC1,"inconclusive: 31.6 µM [inhibitor, single point]",–
CC1C2Cn3c(nc4ccccc43)C1N(C(C)C)O2 (stereo unspecified),"inconclusive: 3.98 µM [inhibitor, single point]",–
Oc1ccc(Br)cc1-c1cc(-c2ccccc2F)[nH]n1,inactive,–
O=C(CSc1nnc(-c2ccncc2)n1Cc1ccco1)Nc1nc(-c2ccccc2)cs1,"inconclusive: 8.91 µM [inhibitor, partial curve, poor fit]",–
c1ccc(OCCSc2nnnn2C2CCCCC2)cc1,inactive,–
CC1(c2ccccc2)CC(C)(C)N2C(=O)C3(C(C#N)=C(N)Oc4cc(O)ccc43)c3cccc1c32 (stereo unspecified),inactive,–
COc1ccc(C(=O)NNC(=S)NC(=O)c2ccco2)cc1,active: 20 µM,–
COc1ccc(-c2nc(CSCC(=O)N3CCC(C(N)=O)CC3)c(C)o2)cc1OC,"inconclusive: 7.94 µM [activator, single point]",–
Cc1cc(NC(=O)C2CCCCC2)n(-c2nc3ccccc3[nH]2)n1,"inconclusive: 22.4 µM [inhibitor, single point]",–
CCCN1C(=O)C(O)(CC(=O)c2cccc(OC)c2)c2ccccc21 (stereo unspecified),inactive,–
Cc1cccc2cc(CN(CCCO)C(=O)Nc3ccc(Cl)cc3)c(=O)[nH]c12,inactive,–
COc1ccccc1NC(=O)c1ccc(NS(=O)(=O)c2ccc(F)c(F)c2F)cc1,"inconclusive: 3.16 µM [inhibitor, single point]",–
CCN(CC)C(=O)CSc1nc2ccccc2c(=O)n1CC1CCCCC1,"inconclusive: 15.8 µM [inhibitor, single point]",–
CC1=CC(=C(c2ccc(N)cc2)c2ccc(N)cc2)C=CC1=N,active: 7.94 µM,–
O=c1c2ccccc2c(-c2ccccc2)nn1Cc1ccc(Cl)cc1,"inconclusive: 35.5 µM [inhibitor, single point]",–
CCn1c(SCC(=O)N/N=C/C(C)=C\c2ccco2)nnc1-c1ccccc1,inactive,–
CCN(CC)CCCN(Cc1cc2cc3c(cc2[nH]c1=O)OCCO3)C(=O)Nc1ccccc1,"inconclusive: 14.1 µM [inhibitor, single point]",–

# Some of the entries above, reformatted.
SMILES	Potency	activity change, negative = inhibition
Cc1ccc(NC(=O)C2CCN(S(=O)(=O)c3c(C)n[nH]c3C)CC2)nc1	inconclusive: 3.16 µM [inhibitor, single point]	–
COc1ccc2oc(=N)c(C(=O)Nc3ccccc3)cc2c1	inactive	–
Cn1nnnc1N=N/C(=N/Nc1ccccc1)c1ccccc1	inconclusive: 3.55 µM [inhibitor, single point]	–
CN1CCC(Nc2ncc3ncnc(Nc4ccc(F)c(Cl)c4)c3n2)CC1	inconclusive: 31.6 µM [inhibitor, single point]	–
CC1C2Cn3c(nc4ccccc43)C1N(C(C)C)O2 (stereo unspecified)	inconclusive: 3.98 µM [inhibitor, single point]	–
CC1(c2ccccc2)CC(C)(C)N2C(=O)C3(C(C#N)=C(N)Oc4cc(O)ccc43)c3cccc1c32 (stereo unspecified)	inactive	–
COc1ccc(C(=O)NNC(=S)NC(=O)c2ccco2)cc1	active: 20 µM	–
COc1ccc(-c2nc(CSCC(=O)N3CCC(C(N)=O)CC3)c(C)o2)cc1OC	inconclusive: 7.94 µM [activator, single point]	–
Cc1cc(NC(=O)C2CCCCC2)n(-c2nc3ccccc3[nH]2)n1	inconclusive: 22.4 µM [inhibitor, single point]	–
CCCN1C(=O)C(O)(CC(=O)c2cccc(OC)c2)c2ccccc21 (stereo unspecified)	inactive	–
Cc1cccc2cc(CN(CCCO)C(=O)Nc3ccc(Cl)cc3)c(=O)[nH]c12	inactive	–
COc1ccccc1NC(=O)c1ccc(NS(=O)(=O)c2ccc(F)c(F)c2F)cc1	inconclusive: 3.16 µM [inhibitor, single point]	–
CCn1c(SCC(=O)N/N=C/C(C)=C\c2ccco2)nnc1-c1ccccc1	inactive	–
CCN(CC)CCCN(Cc1cc2cc3c(cc2[nH]c1=O)OCCO3)C(=O)Nc1ccccc1	inconclusive: 14.1 µM [inhibitor, single point]	–

# The list goes on:

SMILES,Potency,"activity change, negative = inhibition"
O=c1[nH]c(CN2CCN(S(=O)(=O)c3cccs3)CC2)nc2c(Br)cc(Br)cc12,inactive,–
N#Cc1ccc(CSc2nnc(-c3c[nH]c4ccccc34)n2-c2ccccc2)cc1,"inconclusive: 22.4 µM [inhibitor, single point]",–
CNC(=O)c1sc(N2N=C3/C(=C/c4ccccc4)CCCC3C2c2ccccc2)nc1C (stereo unspecified),"inconclusive: 15.8 µM [inhibitor, single point]",–
O=C(NCCc1ccccc1)C1CCCN(S(=O)(=O)c2cccc3nsnc23)C1 (stereo unspecified),"inconclusive: 35.5 µM [inhibitor, single point]",–
CCN(C(=O)c1cccnc1)c1ccccc1,"inconclusive: 35.5 µM [activator, partial curve]",–
CNC(=O)c1cc(C)c(-c2ccccc2)s1,"inconclusive: 8.91 µM [inhibitor, partial curve]",–
Cc1nc(-c2cccc(NS(=O)(=O)c3ccc4ccccc4c3)c2)cs1,"inconclusive: 28.2 µM [inhibitor, single point]",–
COCC(=O)Nc1ccc(Nc2ccccc2)cc1,"inconclusive: 1.78 µM [activator, partial curve]",–
Cc1cc(C)n(Cc2ccc(C(=O)O)o2)n1,"inconclusive: 20 µM [activator, single point]",–
CC(C)CC(=O)NC(=S)Nc1cccc2nsnc12,"inconclusive: 25.1 µM [inhibitor, single point]",–
Cc1cc(C)nc(-n2ncc3c2CC(C)CC3=O)n1 (stereo unspecified),–,inactive: -4.87% [at 9.22 µM]
COc1ccccc1-c1nnc2n1N=C(C(C)(C)C)CS2,inactive,–
Cc1ccc(C)c(Cn2c(CN(C)Cc3ccccc3)nc3c2c(=O)n(C)c(=O)n3C)c1,"inconclusive: 20 µM [inhibitor, partial curve, poor fit]",–
CCN1C(=O)/C(=C\N(C)C)NC1=S,inactive,–
Cc1ccc(S(=O)(=O)Nc2cc(S(=O)(=O)N3CCCCC3)ccc2N2CCOCC2)cc1,"inconclusive: 35.5 µM [activator, single point]",–
O=c1c2ccccc2nc(-c2cccc(Cl)c2)n1O,"inconclusive: 35.5 µM [inhibitor, single point]",–
COc1ccc(C(=O)CCN2CCc3cc(OC)c(OC)cc3C2)cc1,"inconclusive: 35.5 µM [inhibitor, single point]",–
CCC(c1nnnn1Cc1ccco1)N(CCc1ccccc1)Cc1cc2ccc(OC)cc2[nH]c1=O (stereo unspecified),"inconclusive: 28.2 µM [inhibitor, single point]",–
CC(Nc1ccc(Br)cc1)C(=O)N/N=C/c1ccccc1OCc1ccccc1 (stereo unspecified),"inconclusive: 35.5 µM [inhibitor, single point]",–
Cc1cccc(C)c1NC(=S)NCCSc1ccc(Cl)cc1,active: 11.2 µM,–
C=CCn1c(SCc2csc(-c3ccc(Cl)cc3)n2)nnc1-c1ccccc1OC,"inconclusive: 2.82 µM [inhibitor, single point]",–
Cc1cc2cc(CNC(=O)c3ccc(S(=O)(=O)N(C)C)cc3)ccc2n1C,inactive,–
COC(=O)c1cc(C(=O)N2CCN(c3cccc(C)c3C)CC2)cc([N+](=O)[O-])c1,"inconclusive: 6.31 µM [activator, partial curve, poor fit]",–
